For five molecules, binding results are on record in publication PMC9561260.

This experiment addresses T1, 2× HA-3× FLAG-Eya1 (UniProt P97767).
T1 sequence: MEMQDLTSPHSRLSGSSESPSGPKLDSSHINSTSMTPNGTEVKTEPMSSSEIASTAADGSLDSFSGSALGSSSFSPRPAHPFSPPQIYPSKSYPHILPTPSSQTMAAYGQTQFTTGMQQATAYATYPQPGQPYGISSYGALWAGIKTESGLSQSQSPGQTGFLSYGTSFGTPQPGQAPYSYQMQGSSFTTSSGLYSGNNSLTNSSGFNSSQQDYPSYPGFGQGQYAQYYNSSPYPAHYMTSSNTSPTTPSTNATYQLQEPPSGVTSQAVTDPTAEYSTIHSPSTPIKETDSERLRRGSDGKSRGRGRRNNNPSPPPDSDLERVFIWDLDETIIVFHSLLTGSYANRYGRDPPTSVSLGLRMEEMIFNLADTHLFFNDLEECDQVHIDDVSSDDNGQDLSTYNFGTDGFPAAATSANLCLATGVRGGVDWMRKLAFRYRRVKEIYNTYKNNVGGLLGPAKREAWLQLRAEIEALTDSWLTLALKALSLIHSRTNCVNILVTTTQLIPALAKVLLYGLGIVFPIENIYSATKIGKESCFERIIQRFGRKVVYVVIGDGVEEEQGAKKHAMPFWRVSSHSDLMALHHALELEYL
Description: affinity purification with mass spectrometry; tandem purification of HF-Eya1 from lysate of stable HEK293 cells: anti-FLAG M2 beads, FLAG peptide elution, then anti-HA agarose; 50 mM Tris-HCl pH 7.5, 150 mM NaCl, 0.1% Nonidet P-40, 4°C; 12 bands (B1-B12) cut from a silver-stained gel.

Results are given in words; binding and its absence hold for the method and conditions named. Binding seen in cells or lysates may run through a third protein. A yes stands for co-enrichment or nearness to the bait. Other partners may have been found. Where a sequence is shown, tags or fusion partners need not be part of it.

B1: MCM6 (protein, UniProt Q14566 1-821)
chain: MDLAAAAEPGAGSQHLEVRDEVAEKCQKLFLDFLEEFQSSDGEIKYLQLAEELIRPERNTLVVSFVDLEQFNQQLSTTIQEEFYRVYPYLCRALKTFVKDRKEIPLAKDFYVAFQDLPTRHKIRELTSSRIGLLTRISGQVVRTHPVHPELVSGTFLCLDCQTVIRDVEQQFKYTQPNICRNPVCANRRRFLLDTNKSRFVDFQKVRIQETQAELPRGSIPRSLEVILRAEAVESAQAGDKCDFTGTLIVVPDVSKLSTPGARAETNSRVSGVDGYETEGIRGLRALGVRDLSYRLVFLACCVAPTNPRFGGKELRDEEQTAESIKNQMTVKEWEKVFEMSQDKNLYHNLCTSLFPTIHGNDEVKRGVLLMLFGGVPKTTGEGTSLRGDINVCIVGDPSTAKSQFLKHVEEFSPRAVYTSGKASSAAGLTAAVVRDEESHEFVIEAGALMLADNGVCCIDEFDKMDVRDQVAIHEAMEQQTISITKAGVKATLNARTSILAAANPISGHYDRSKSLKQNINLSAPIMSRFDLFFILVDECNEVTDYAIARRIVDLHSRIEESIDRVYSLDDIRRYLLFARQFKPKISKESEDFIVEQYKHLRQRDGSGVTKSSWRITVRQLESMIRLSEAMARMHCCDEVQPKHVKEAFRLLNKSIIRVETPDVNLDQEEEIQMEVDEGAGGINGHADSPAPVNGINGYNEDINQESAPKASLRLGFSEYCRISNLIVLHLRKVEEEEDESALKRSELVNWYLKEIESEIDSEEELINKKRIIEKVIHRLTHYDHVLIELTQAGLKGSTEGSESYEEDPYLVVNPNYLLED
With B1, the binding entry is “binds”.

B2: PHF6 (protein, UniProt Q8IWS0 1-365)
chain: MSSSVEQKKGPTRQRKCGFCKSNRDKECGQLLISENQKVAAHHKCMLFSSALVSSHSDNESLGGFSIEDVQKEIKRGTKLMCSLCHCPGATIGCDVKTCHRTYHYHCALHDKAQIREKPSQGIYMVYCRKHKKTAHNSEADLEESFNEHELEPSSPKSKKKSRKGRPRKTNFKGLSEDTRSTSSHGTDEMESSSYRDRSPHRSSPSDTRPKCGFCHVGEEENEARGKLHIFNAKKAAAHYKCMLFSSGTVQLTTTSRAEFGDFDIKTVLQEIKRGKRMKCTLCSQPGATIGCEIKACVKTYHYHCGVQDKAKYIENMSRGIYKLYCKNHSGNDERDEEDEERESKSRGKVEIDQQQLTQQQLNGN
As to B2, the binding result is “binds”.

B3: SMC6 (protein, UniProt Q96SB8 1-1091)
chain: MAKRKEENFSSPKNAKRPRQEELEDFDKDGDEDECKGTTLTAAEVGIIESIHLKNFMCHSMLGPFKFGSNVNFVVGNNGSGKSAVLTALIVGLGGRAVATNRGSSLKGFVKDGQNSADISITLRNRGDDAFKASVYGNSILIQQHISIDGSRSYKLKSATGSVVSTRKEELIAILDHFNIQVDNPVSVLTQEMSKQFLQSKNEGDKYKFFMKATQLEQMKEDYSYIMETKERTKEQIHQGEERLTELKRQCVEKEERFQSIAGLSTMKTNLESLKHEMAWAVVNEIEKQLNAIRDNIKIGEDRAARLDRKMEEQQVRLNEAEQKYKDIQDKLEKISEETNARAPECMALKADVVAKKRAYNEAEVLYNRSLNEYKALKKDDEQLCKRIEELKKSTDQSLEPERLERQKKISWLKERVKAFQNQENSVNQEIEQFQQAIEKDKEEHGKIKREELDVKHALSYNQRQLKELKDSKTDRLKRFGPNVPALLEAIDDAYRQGHFTYKPVGPLGACIHLRDPELALAIESCLKGLLQAYCCHNHADERVLQALMKRFYLPGTSRPPIIVSEFRNEIYDVRHRAAYHPDFPTVLTALEIDNAVVANSLIDMRGIETVLLIKNNSVARAVMQSQKPPKNCREAFTADGDQVFAGRYYSSENTRPKFLSRDVDSEISDLENEVENKTAQILNLQQHLSALEKDIKHNEELLKRCQLHYKELKMKIRKNISEIRELENIEEHQSVDIATLEDEAQENKSKMKMVEEHMEQQKENMEHLKSLKIEAENKYDAIKFKINQLSELADPLKDELNLADSEVDNQKRGKRHYEEKQKEHLDTLNKKKRELDMKEKELEEKMSQARQICPERIEVEKSASILDKEINRLRQKIQAEHASHGDREEIMRQYQEARETYLDLDSKVRTLKKFIKLLGEIMEHRFKTYQQFRRCLTLRCKLYFDNLLSQRAYCGKMNFDHKNETLSISVQPGEGNKAAFNDMRALSGGERSFSTVCFILSLWSIAESPFRCLDEFDVYMDMVNRRIAMDLILKMADSQRFRQFILLTPQSMSSLPSSKLIRILRMSDPERGQTTLPFRPVTQEEDDDQR
Regarding B3, the binding entry is given as “binds”.

B4: SMC1A (structural maintenance of chromosomes) (protein, UniProt Q14683 1-1233)
chain: MGFLKLIEIENFKSYKGRQIIGPFQRFTAIIGPNGSGKSNLMDAISFVLGEKTSNLRVKTLRDLIHGAPVGKPAANRAFVSMVYSEEGAEDRTFARVIVGGSSEYKINNKVVQLHEYSEELEKLGILIKARNFLVFQGAVESIAMKNPKERTALFEEISRSGELAQEYDKRKKEMVKAEEDTQFNYHRKKNIAAERKEAKQEKEEADRYQRLKDEVVRAQVQLQLFKLYHNEVEIEKLNKELASKNKEIEKDKKRMDKVEDELKEKKKELGKMMREQQQIEKEIKEKDSELNQKRPQYIKAKENTSHKIKKLEAAKKSLQNAQKHYKKRKGDMDELEKEMLSVEKARQEFEERMEEESQSQGRDLTLEENQVKKYHRLKEEASKRAATLAQELEKFNRDQKADQDRLDLEERKKVETEAKIKQKLREIEENQKRIEKLEEYITTSKQSLEEQKKLEGELTEEVEMAKRRIDEINKELNQVMEQLGDARIDRQESSRQQRKAEIMESIKRLYPGSVYGRLIDLCQPTQKKYQIAVTKVLGKNMDAIIVDSEKTGRDCIQYIKEQRGEPETFLPLDYLEVKPTDEKLRELKGAKLVIDVIRYEPPHIKKALQYACGNALVCDNVEDARRIAFGGHQRHKTVALDGTLFQKSGVISGGASDLKAKARRWDEKAVDKLKEKKERLTEELKEQMKAKRKEAELRQVQSQAHGLQMRLKYSQSDLEQTKTRHLALNLQEKSKLESELANFGPRINDIKRIIQSREREMKDLKEKMNQVEDEVFEEFCREIGVRNIREFEEEKVKRQNEIAKKRLEFENQKTRLGIQLDFEKNQLKEDQDKVHMWEQTVKKDENEIEKLKKEEQRHMKIIDETMAQLQDLKNQHLAKKSEVNDKNHEMEEIRKKLGGANKEMTHLQKEVTAIETKLEQKRSDRHNLLQACKMQDIKLPLSKGTMDDISQEEGSSQGEDSVSGSQRISSIYAREALIEIDYGDLCEDLKDAQAEEEIKQEMNTLQQKLNEQQSVLQRIAAPNMKAMEKLESVRDKFQETSDEFEAARKRAKKAKQAFEQIKKERFDRFNACFESVATNIDEIYKALSRNSSAQAFLGPENPEEPYLDGINYNCVAPGKRFRPMDNLSGGEKTVAALALLFAIHSYKPAPFFVLDEIDAALDNTNIGKVANYIKEQSTCNFQAIVISLKEEFYTKAESLIGVYPEQGDCVISKVLTFDLTKYPDANPNPNEQ
Regarding B4, the binding entry was “binds”.

B5: MCM10 (protein, UniProt Q7L590 1-875)
chain: MDEEEDNLSLLTALLEENESALDCNSEENNFLTRENGEPDAFDELFDADGDGESYTEEADDGETGETRDEKENLATLFGDMEDLTDEEEVPASQSTENRVLPAPAPRREKTNEELQEELRNLQEQMKALQEQLKVTTIKQTASPARLQKSPVEKSPRPPLKERRVQRIQESTCFSAELDVPALPRTKRVARTPKASPPDPKSSSSRMTSAPSQPLQTISRNKPSGITRGQIVGTPGSSGETTQPICVEAFSGLRLRRPRVSSTEMNKKMTGRKLIRLSQIKEKMAREKLEEIDWVTFGVILKKVTPQSVNSGKTFSIWKLNDLRDLTQCVSLFLFGEVHKALWKTEQGTVVGILNANPMKPKDGSEEVCLSIDHPQKVLIMGEALDLGTCKAKKKNGEPCTQTVNLRDCEYCQYHVQAQYKKLSAKRADLQSTFSGGRIPKKFARRGTSLKERLCQDGFYYGGVSSASYAASIAAAVAPKKKIQTTLSNLVVKGTNLIIQETRQKLGIPQKSLSCSEEFKELMDLPTCGARNLKQHLAKATASGIMGSPKPAIKSISASALLKQQKQRMLEMRRRKSEEIQKRFLQSSSEVESPAVPSSSRQPPAQPPRTGSEFPRLEGAPATMTPKLGRGVLEGDDVLFYDESPPPRPKLSALAEAKKLAAITKLRAKGQVLTKTNPNSIKKKQKDPQDILEVKERVEKNTMFSSQAEDELEPARKKRREQLAYLESEEFQKILKAKSKHTGILKEAEAEMQERYFEPLVKKEQMEEKMRNIREVKCRVVTCKTCAYTHFKLLETCVSEQHEYHWHDGVKRFFKCPCGNRSISLDRLPNKHCSNCGLYKWERDGMLKEKTGPKIGGETLLPRGEEHAKFLNSLK
As for B5, the binding result is listed as “binds”.
